Values from PubChem BioAssay AID1159579 (Peter MacCallum Cancer Centre, 2015).
This is an unselected part of about 2,000 reagents. 549 of all reagents (27%) were called active. 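Some migration ratios are negative; siRNAs with too few cells are inactive whatever their migration ratio.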 The numbers tell different reagents against one gene apart. The record does not give: the time to read-out.

Assay: 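Retest candidate lymphatic endothelial migration regulators using several independent siRNAs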 (follow-up of hits)
System: human dermal lymphatic endothelial cells
Reagent: single siRNA against human genes, 25 nM
Measured: 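Scratch wound imaging measuring area filled by moving cells plus nuclei number, averaged over two wells and scaled to mock-transfected controls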
Scale: migration relative to mock: higher = more migration into the scratch; mean nuclei count: higher = more cells remaining
Hit rule: 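Called active when the migration ratio is 0.6 or lower (impaired) or 1.3 or higher (accelerated), but inactive whenever the mean nuclei count falls under 3300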
Calls: active = migration changed (impaired or accelerated); inactive = no migration change, or too few cells

What is on record for SLC31A2 #1?
migration relative to mock: 0.54; migration and cell number class: migration reduced; mean nuclei count: 7126; outcome: active

For SLC31A2 #2, what does the deposit list?
migration relative to mock: 0.96; migration and cell number class: no change in migration or cell number; mean nuclei count: 5788; outcome: inactive

What did the screen give for SLC31A2 #3?
migration relative to mock: 0.42; migration and cell number class: migration reduced; mean nuclei count: 6155; outcome: active

What did the screen give for SLC31A2 #4?
migration relative to mock: -1.41; migration and cell number class: too few cells; migration not scored; mean nuclei count: 1488; outcome: inactive

What is on record for FER1L6 #1?
migration relative to mock: 1.01; migration and cell number class: no change in migration or cell number; mean nuclei count: 5332; outcome: inactive

What is on record for FER1L6 #2?
migration relative to mock: 1.22; migration and cell number class: no change in migration or cell number; mean nuclei count: 5493; outcome: inactive

What did the screen give for FER1L6 #3?
migration relative to mock: 0.74; migration and cell number class: no change in migration or cell number; mean nuclei count: 4374; outcome: inactive

With FER1L6 #4, what does the deposit list?
migration relative to mock: 1.02; migration and cell number class: no change in migration or cell number; mean nuclei count: 4906; outcome: inactive

Laid out differently: 2 of the entries above
gene | reagent no. | migration relative to mock | migration and cell number class | mean nuclei count | outcome
FER1L6 | 2 | 1.22 | no change in migration or cell number | 5493 | inactive
FER1L6 | 3 | 0.74 | no change in migration or cell number | 4374 | inactive

The results go on:
With LRRC4 #1, what was measured?
migration relative to mock: 0.57; migration and cell number class: migration reduced; mean nuclei count: 5728; outcome: active

How did the screen score LRRC4 #2?
migration relative to mock: 0.85; migration and cell number class: no change in migration or cell number; mean nuclei count: 4031; outcome: inactive

Which result is listed for LRRC4 #3?
migration relative to mock: 0.85; migration and cell number class: no change in migration or cell number; mean nuclei count: 5036; outcome: inactive

With LRRC4 #4, what was measured?
migration relative to mock: 0.71; migration and cell number class: no change in migration or cell number; mean nuclei count: 4590; outcome: inactive

Which result is listed for SLC2A10 #1?
migration relative to mock: 1.18; migration and cell number class: no change in migration or cell number; mean nuclei count: 5621; outcome: inactive

How did the screen score SLC2A10 #2?
migration relative to mock: 1.05; migration and cell number class: no change in migration or cell number; mean nuclei count: 7420; outcome: inactive

What is on record for SLC2A10 #3?
migration relative to mock: 0.86; migration and cell number class: no change in migration or cell number; mean nuclei count: 5318; outcome: inactive

With SLC2A10 #4, how do the results read?
migration relative to mock: 0.5; migration and cell number class: migration reduced; mean nuclei count: 4758; outcome: active
